Results as given in PubChem BioAssay AID1345085 (National Center for Advancing Translational Sciences (NCATS), 2018).
This list was built around the results that the source calls inconclusive (neither active nor inactive); the mix of calls is not that of the screen. Potencies beside an inconclusive call are fits to weak or partial responses and may not hold up. Active and inactive are the calls of the source. Calls follow the shape of the dose curve; as a rule, active = well fitted cell-killing curve with a large enough effect; inconclusive = small, poorly fitted or top-dose-only effect, or effect the other way; inactive = no such curve, though single readings can be large or run the other way.

Tested on: Es-2
Experiment: Confirmatory qHTS for gynecologic anti-cancer compounds from libraries of approved drugs and bioactive compounds; also: nearly all actives have a fitted effect of over 55% in size
Conditions: gynecologic cancer cell panel viability, ATPlite luminescence, 48 h; series mostly up to 57.6 µM; activity change, negative = viability loss: at the top concentration
Summary of the method: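 ATP-based luminescent viability (ATPlite) after 48 h drug treatment at 37 °C, 5% CO2, across 57.5 uM–0.977 nM in 1:3 steps. Cells seeded at 1,000 per well 16 h beforehand; IC50 values computed, HEK 293T as selectivity control.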
% is scaled to controls: 0 for no effect and ±100 for the full control effect; potency is read from the fitted curve at half-maximal effect.

With Cn1c(=O)c(F)c(Nc2ccc(I)cc2F)c2c(=O)n(CC(O)CO)cnc21 (stereo unspecified) as the compound, how does the Potency read?
The Potency was inconclusive: 0.432 µM [cytotoxic, full curve].

With Cc1ccc(C(=O)Nc2ccc(Oc3cc4cnn(C)c4cc3-c3cn[nH]c3)c(F)c2)c(=O)n1-c1ccc(F)cc1 as the compound, how does the Potency read?
The Potency was inconclusive: 5.44 µM [rising, partial curve, poor fit].

Which Potency does the source give for NC(=O)Nc1cc(-c2cccc(F)c2)sc1C(=O)NC1CCCNC1 (stereo unspecified) here?
The Potency was active: 0.344 µM.

How did the “activity change, negative = viability loss” value turn out when C#C[C@]1(O)CC[C@H]2[C@@H]3CCC4=CC(=O)CC[C@@H]4[C@H]3CC[C@@]21CC was run?
Its value is inactive: 4.9%.

With CCCS(=O)c1ccc2nc(NC(=O)OC)[nH]c2c1 (stereo unspecified) as the compound, how does the Potency read?
Its Potency is inconclusive: 24.3 µM [cytotoxic, partial curve].

Cc1ccc(C(=O)Nc2cccc(C(F)(F)F)c2)cc1-c1ccc2nc(NCCN3CCOCC3)ncc2c1 was tested. Which Potency did it give?
Its Potency is active: 5.44 µM.

With Cc1nc2ccc(CN(C)c3ccc(C(=O)NC(CCC(=O)O)C(=O)O)s3)cc2c(=O)[nH]1 (stereo unspecified) as the compound, how does the Potency read?
Its Potency is inconclusive: 0.243 µM [cytotoxic, full curve].

For O=C(O)C1(Cc2cccc(Nc3nccs3)n2)CCC(Oc2cccc(Cl)c2F)CC1 (stereo unspecified), which Potency is on record?
Its Potency is inconclusive: 1.53 µM [cytotoxic, full curve].

Which “activity change, negative = viability loss” value does the source give for O=c1[nH]c(=O)n([C@H]2C[C@H](O)[C@@H](CO)O2)cc1Br here?
Its value is inactive: 5.77%.

For O=C(NOC[C@H](O)CO)c1ccc(F)c(F)c1Nc1ccc(I)cc1F, which Potency is on record?
The Potency was active: 0.344 µM.

Which Potency does the source give for Cc1cncc2cccc(S(=O)(=O)N3CCCN(C(=O)CN)C[C@@H]3C)c12 here?
The Potency was inconclusive: 2.43 µM [cytotoxic, full curve].
